Measurements from PubChem BioAssay AID1487 (National Center for Advancing Translational Sciences (NCATS), 2009).
The other results are listed elsewhere or left out. Shown are side measurements of this screen, not its main read-out; they come without a call. Compounds called inactive in the main read-out are mostly missing here. Potencies come from curve fits of mixed quality, noted in brackets.

Experiment: qHTS Assay for Modulators of Lamin A Splicing
Conditions: HeLa LMNA splicing GFP/RFP minigene ratio, 48 h
Procedure, shortened: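 Read-out is the ratio of GFP to DsRed2 object intensity, acquired by 488 nm laser-scanning cytometry on HeLa lamin A-EGFP minigene reporter cells. Compound incubation 48 hrs at 37 °C in Opti-MEM with 2% FBS; DMSO 0.5% final.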

[1] = measured here: RFP viability control channel
[2] = measured here: GFP splicing reporter channel

Row | SMILES | AC50 [1] | AC50 [2]
1 | O=C(Nc1nnc(C2CC2)s1)c1ccc(Cl)c(S(=O)(=O)N2CCc3ccccc3C2)c1 | 2.51 µM [rising, full curve] | –
2 | Nc1ccc(Cc2nc3cc4ccccc4cc3[nH]2)cc1 | – | 6.31 µM [falling, full curve]
3 | CCCCCCCCNC(C)C(O)c1ccc(SC(C)C)cc1 (centres undefined) | 35.5 µM [falling, single point] | 35.5 µM [falling, single point]
4 | CN(C)CCCNS(=O)(=O)c1ccc(N2CCC(c3ccc(Cl)cc3)=N2)cc1 | 35.5 µM [falling, single point] | 35.5 µM [falling, single point]
5 | COc1ccc(CNS(=O)(=O)c2cnc(N)nc2)cc1 | 6.31 µM [rising, partial curve, poor fit] | 0.0891 µM [rising, full curve, poor fit]
6 | CC1(C)Cc2cccc(OCC(=O)N3CCN(S(=O)(=O)c4ccccc4)CC3)c2O1 | 7.08 µM [rising, partial curve] | 7.08 µM [rising, partial curve]
7 | CCn1c(=O)n(CC)c2cc(S(=O)(=O)N3CCc4ccccc43)ccc21 | 35.5 µM [rising, single point] | –
8 | CCOc1ccccc1NC(=O)CN1c2ccccc2S(=O)(=O)c2ccccc21 | – | 39.8 µM [falling, partial curve, poor fit]
9 | Cc1ccc(CNC(=O)c2cc(S(=O)(=O)N3CCCCCC3)cn2C)cc1 | – | 6.31 µM [rising, partial curve, poor fit]
10 | COc1ccc(Cn2ccc3nc(C)c(C(=O)Nc4ccc(OC(F)(F)F)cc4)cc3c2=O)cc1 | 3.98 µM [rising, single point] | –
11 | CCOc1ccc(Nc2nc(N)nc(CN3CCN(c4ccccc4F)CC3)n2)cc1 | 35.5 µM [rising, single point] | –
12 | Cc1ccn2c(c1)nc(=S)n2C(=O)c1ccccc1 | – | 35.5 µM [rising, single point]
13 | Cc1cc(NC(=O)Cn2nnc3sc4c(c3c2=O)CCC(C(C)(C)C)C4)no1 (centres undefined) | 14.1 µM [rising, partial curve] | 1.26 µM [rising, full curve]
14 | C=CCN1C(c2ccc(OCC)cc2)=CS/C1=C(\C#N)c1nnc2n1CCCCC2 | 31.6 µM [rising, single point] | –
15 | Cn1c(=O)n(Cc2ccc(F)cc2)c(=O)c2c1nc1n2CCCN1C1CCCCC1 | 17.8 µM [rising, partial curve] | 12.6 µM [rising, partial curve]
16 | COc1ccc(C(C)=O)cc1CN1C(=O)C(C)N(c2ccc(C)cc2)C1=O (centres undefined) | – | 14.1 µM [rising, single point]
17 | Cc1ncc(CO)c(/C=N/NC(=S)Nc2cccc(Cl)c2)c1O | 22.4 µM [falling, partial curve, poor fit] | –
18 | COC(=O)CN1C(=S)N(c2ccc(OC)cc2)C(=O)/C1=C/c1ccc(N2CCOCC2)cc1 | 35.5 µM [rising, single point] | –
19 | O=C(/C=C/c1ccccc1Cl)N(c1ccccn1)C1CCCCC1 | 35.5 µM [rising, single point] | –
20 | COc1cccc(CNC(=O)C2CCN(S(=O)(=O)N3CCC(C)CC3)CC2)c1 | 0.112 µM [falling, full curve, poor fit] | –
21 | O=C(O)c1cc([N+](=O)[O-])ccc1NCCCc1ccccc1 | 14.1 µM [rising, single point] | –
22 | NC(=O)CSc1ncnc2c1cnn2Cc1ccccc1 | 5.01 µM [rising, full curve, poor fit] | –
23 | CCOC(=O)c1c(S(=O)(=O)N2CCC(C(=O)Nc3ccc(OCC)cc3)CC2)c(C)n(C)c1C | 0.112 µM [falling, full curve] | –
24 | CCN(Cc1ccncc1)C(=O)[C@@H](CO)c1ccccc1 | 0.0794 µM [falling, full curve] | 0.0794 µM [falling, full curve]
25 | CN(c1ccc(C(=O)N2CCCCC2)cc1)S(=O)(=O)c1ccccc1 | 31.6 µM [rising, single point] | 35.5 µM [rising, single point]
26 | O=C(Nc1cccc(Cl)c1N1CCCC1)c1ccc([N+](=O)[O-])o1 | 7.94 µM [rising, partial curve] | –

Row | SMILES | AC50 [1] | AC50 [2]
27 | c1ccc(-c2ccc(-c3nc(-c4ccccn4)no3)cc2)cc1 | 28.2 µM [rising, single point] | –
28 | Cc1ccc(CS/C(Nc2ccccc2C)=C(\C#N)C(N)=O)c(C)c1 | 20 µM [rising, partial curve, poor fit] | 14.1 µM [rising, partial curve, poor fit]
29 | CCNc1nc(SCCOc2ccc(C)cc2)nc(N(C)C)n1 | 35.5 µM [rising, single point] | 35.5 µM [rising, single point]
30 | Cc1cc(NC(=O)CCCN2C(=O)/C(=C\c3cccs3)SC2=S)no1 | 5.62 µM [rising, partial curve] | –
31 | COC(=O)c1ccc(C2/C(=C(/O)c3ccc(OC(C)C)cc3)C(=O)C(=O)N2c2cc(C)on2)cc1 (centres undefined) | 35.5 µM [falling, single point] | 35.5 µM [falling, single point]
32 | O=S(=O)(c1cccc(F)c1)N1CCN(C(=S)NCc2ccccc2)CC1 | 11.2 µM [rising, partial curve, poor fit] | –
33 | O=C(CCCN1C(=O)c2ccccc2C1=O)Nc1ccc2c(c1)OCCO2 | 0.708 µM [falling, full curve] | 10 µM [falling, partial curve, poor fit]
34 | CC(=O)Nc1nnc(SCc2cc(=O)c3cccc(Cl)c3[nH]2)s1 | 0.794 µM [rising, full curve, poor fit] | 0.562 µM [rising, partial curve, poor fit]
35 | COc1ccc(-c2nc(N=Nc3ccc(O)cc3)n[nH]2)cc1 | 17.8 µM [rising, single point] | –
36 | COc1cccc2oc(-c3ccco3)cc(=O)c12 | 17.8 µM [rising, partial curve, poor fit] | –
37 | CC1(C)S[C@@H]2[C@H](NC(=O)COc3ccccc3)C(=O)N2[C@H]1C(=O)O (tested in a mixture with another compound) | 0.00398 µM [falling, full curve, poor fit] | 0.00355 µM [falling, full curve, poor fit]
38 | CC(=O)N1c2ccc(S(=O)(=O)N3CCCCCC3)cc2CC1C(=O)NCc1ccccc1F (centres undefined) | 10 µM [falling, partial curve, poor fit] | 10 µM [falling, partial curve]
39 | CCC1(O)CC2CN(CCc3c([nH]c4ccccc34)[C@@](C(=O)OC)(c3cc4c(cc3OC)N(C=O)C3[C@]45CCN4CC=C[C@@](CC)([C@@H](OC(C)=O)[C@]3(O)C(=O)OC)[C@H]45)C2)C1 (some centres undefined) | 0.0708 µM [falling, full curve] | 0.0251 µM [falling, full curve]
40 | CC(C)CC[n+]1ccn(C2=C([O-])c3ccccc3C(=O)/C2=N\S(=O)(=O)c2ccccc2)c1 | 35.5 µM [falling, single point] | 22.4 µM [falling, single point]
41 | CCOc1ccc(CCNC(=O)CN2C(=O)c3cccnc3Oc3ccc(Cl)cc32)cc1 | 0.158 µM [falling, full curve, poor fit] | –
42 | O=C(OCn1ncc(Cl)c(Cl)c1=O)c1ccccc1Cl | 10 µM [falling, partial curve] | 7.08 µM [falling, partial curve]
43 | COc1cccc(NC(=O)c2nn(C34CC5CC(CC(C5)C3)C4)cc2[N+](=O)[O-])c1 | 25.1 µM [rising, single point] | 22.4 µM [rising, single point]
44 | CCOC(=O)c1c(NC(=O)/C=C\C(=O)O)sc(C)c1-c1ccccc1 | 35.5 µM [falling, single point] | 20 µM [falling, single point]
45 | CCOc1cc(C(=O)NCCc2csc(-c3ccc(C)cc3)n2)cc(OCC)c1OCC | 12.6 µM [falling, partial curve] | 10 µM [falling, partial curve]
46 | CCOC(=O)N1CCN(C(=O)CSc2ncnc3ccccc23)CC1 | 35.5 µM [rising, single point] | –
47 | CCOC(=O)N1CCC(NC(=O)C2CCCN(S(=O)(=O)c3ccc4c(c3)oc(=O)n4C)C2)CC1 (centres undefined) | 25.1 µM [rising, single point] | –
48 | N#CCC(=O)Nc1ccc(C(=O)NCc2ccccn2)cc1 | 6.31 µM [falling, partial curve] | 31.6 µM [falling, partial curve, poor fit]
49 | O=C(Nc1ccc(F)cc1Cl)C1Cc2ccccc2N1C(=O)c1ccccc1 (centres undefined) | – | 6.31 µM [rising, partial curve, poor fit]
50 | CN(C)S(=O)(=O)c1ccc(N2CCN(S(=O)(=O)c3ccc(F)cc3)CC2)c(Cl)c1 | 25.1 µM [rising, single point] | –
51 | COc1cccc(-c2nn(-c3ccccc3)cc2C(=O)O)c1 | 0.112 µM [falling, partial curve, poor fit] | 6.31 µM [falling, partial curve, poor fit]

Full records as entered above:
O=C(CCCN1C(=O)c2ccccc2C1=O)Nc1ccc2c(c1)OCCO2 in the list: AC50 [1]: 0.708 µM [falling, full curve]; AC50 [2]: 10 µM [falling, partial curve, poor fit]
CC(=O)N1c2ccc(S(=O)(=O)N3CCCCCC3)cc2CC1C(=O)NCc1ccccc1F (centres undefined) in the list: AC50 [1]: 10 µM [falling, partial curve, poor fit]; AC50 [2]: 10 µM [falling, partial curve]
